Source: paper PMC6500071
No constants are given. Whether binding was seen depends on the method and setting. Binding seen in cells or lysates may run through a third protein. Some results given as binding are weak or reduced against the parent protein; the word gives no strength.

The chains behind the UniProt entries cited, without tags or fusion partners.
UniProt Q96DH6: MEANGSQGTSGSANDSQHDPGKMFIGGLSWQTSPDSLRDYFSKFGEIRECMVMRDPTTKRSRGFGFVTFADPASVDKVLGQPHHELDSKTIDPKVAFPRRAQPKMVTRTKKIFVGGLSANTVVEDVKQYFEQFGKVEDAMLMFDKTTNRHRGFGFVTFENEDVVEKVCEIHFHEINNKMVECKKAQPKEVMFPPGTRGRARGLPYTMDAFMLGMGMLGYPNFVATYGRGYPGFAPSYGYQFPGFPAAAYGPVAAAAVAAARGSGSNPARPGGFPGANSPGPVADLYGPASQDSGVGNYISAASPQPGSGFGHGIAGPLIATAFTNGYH
UniProt Q14457: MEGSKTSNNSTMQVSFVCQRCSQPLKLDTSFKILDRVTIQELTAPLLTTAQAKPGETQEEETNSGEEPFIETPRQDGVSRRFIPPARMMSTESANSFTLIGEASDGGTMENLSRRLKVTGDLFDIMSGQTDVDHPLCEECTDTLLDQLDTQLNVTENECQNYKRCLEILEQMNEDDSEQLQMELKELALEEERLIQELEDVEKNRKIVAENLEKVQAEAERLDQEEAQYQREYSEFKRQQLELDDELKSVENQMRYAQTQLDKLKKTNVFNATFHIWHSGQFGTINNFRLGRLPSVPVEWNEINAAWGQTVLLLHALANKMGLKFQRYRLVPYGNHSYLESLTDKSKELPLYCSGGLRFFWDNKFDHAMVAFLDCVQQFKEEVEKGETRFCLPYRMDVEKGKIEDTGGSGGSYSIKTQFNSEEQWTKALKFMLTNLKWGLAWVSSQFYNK
UniProt Q13547: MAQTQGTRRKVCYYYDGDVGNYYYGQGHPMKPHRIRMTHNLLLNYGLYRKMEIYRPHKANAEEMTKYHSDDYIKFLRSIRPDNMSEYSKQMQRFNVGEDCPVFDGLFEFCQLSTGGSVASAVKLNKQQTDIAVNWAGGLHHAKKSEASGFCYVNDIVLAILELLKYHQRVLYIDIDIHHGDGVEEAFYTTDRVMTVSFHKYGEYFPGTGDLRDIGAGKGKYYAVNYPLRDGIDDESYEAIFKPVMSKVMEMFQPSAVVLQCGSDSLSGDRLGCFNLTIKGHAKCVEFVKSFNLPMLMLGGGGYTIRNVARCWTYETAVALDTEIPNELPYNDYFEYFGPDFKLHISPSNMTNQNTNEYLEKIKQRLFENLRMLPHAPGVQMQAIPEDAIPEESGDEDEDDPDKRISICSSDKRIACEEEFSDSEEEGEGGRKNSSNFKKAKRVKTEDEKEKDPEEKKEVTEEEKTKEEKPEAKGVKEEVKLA

Legend:
[1] = biological target: Musashi-2 (MSI2) (human (endogenous in NF1 MPNST cells)) (UniProt Q96DH6); experiment: co-IP; lysates of NF1 MPNST cells; antibody (anti-MSI2 or anti-Beclin1) at 4 °C overnight, protein A/G agarose 1.5 h, three washes with lysis solution, elution in SDS loading buffer, Western blot
[2] = biological target: T1, pRB (human (endogenous in ST8814)) (UniProt P06400); experiment: co-IP; pRB immunoprecipitated from lysates of ST8814 cells with HMGA2 knockdown or overexpression; Western blot for HDAC1 and E2F1
T1 sequence: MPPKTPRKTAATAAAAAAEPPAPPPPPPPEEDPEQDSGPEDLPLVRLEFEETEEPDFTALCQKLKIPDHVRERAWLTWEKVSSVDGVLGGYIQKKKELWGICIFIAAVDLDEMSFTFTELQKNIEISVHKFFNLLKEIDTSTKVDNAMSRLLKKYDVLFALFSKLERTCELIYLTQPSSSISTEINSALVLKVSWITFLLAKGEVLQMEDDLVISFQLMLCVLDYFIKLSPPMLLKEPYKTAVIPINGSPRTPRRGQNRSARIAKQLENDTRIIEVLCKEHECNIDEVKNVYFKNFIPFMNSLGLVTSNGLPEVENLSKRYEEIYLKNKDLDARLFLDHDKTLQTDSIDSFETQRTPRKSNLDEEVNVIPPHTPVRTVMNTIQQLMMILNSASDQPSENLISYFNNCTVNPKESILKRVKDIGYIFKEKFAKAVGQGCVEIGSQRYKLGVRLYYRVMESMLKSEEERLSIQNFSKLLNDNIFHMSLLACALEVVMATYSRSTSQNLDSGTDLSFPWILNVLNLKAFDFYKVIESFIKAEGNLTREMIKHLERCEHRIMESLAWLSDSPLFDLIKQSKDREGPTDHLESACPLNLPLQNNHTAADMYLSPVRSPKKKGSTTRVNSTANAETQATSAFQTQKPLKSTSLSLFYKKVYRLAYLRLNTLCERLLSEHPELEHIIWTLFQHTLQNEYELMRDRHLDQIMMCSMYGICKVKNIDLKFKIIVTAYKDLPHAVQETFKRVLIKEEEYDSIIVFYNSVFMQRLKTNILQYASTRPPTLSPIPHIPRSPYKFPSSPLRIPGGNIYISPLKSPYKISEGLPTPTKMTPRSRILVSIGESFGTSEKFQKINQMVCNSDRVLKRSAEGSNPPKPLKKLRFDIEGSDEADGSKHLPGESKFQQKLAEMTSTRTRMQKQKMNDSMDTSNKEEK

[3] = biological target: Beclin1 (human (endogenous in NF1 MPNST cells)) (UniProt Q14457); experiment: co-IP; lysates of NF1 MPNST cells; antibody (anti-MSI2 or anti-Beclin1) at 4 °C overnight, protein A/G agarose 1.5 h, three washes with lysis solution, elution in SDS loading buffer, Western blot

Substance: Beclin1 (from UniProt Q14457 1-450)
- binding [1]: binds

Substance: HDAC1 (from UniProt Q13547 1-482)
- binding [2]: binds

Substance: Musashi-2 (MSI2) (from UniProt Q96DH6 1-328)
- binding [3]: binds
